No constants are given. Whether binding was seen depends on the method and setting.

This experiment addresses γ-D-glutamyl-L-diamino acid endopeptidase YkfC from Bacillus cereus (Bacillus cereus NRS248 ATCC 10987) (UniProt Q736M3). Description: SEC; analytical size-exclusion chromatography, 0.8 x 30 cm Shodex Protein KW-803 column pre-calibrated with gel-filtration standards; both purified. A general note: In gel filtration, larger molecules generally elute earlier.

B1: γ-D-glutamyl-L-diamino acid endopeptidase YkfC from Bacillus cereus (enzyme, UniProt Q736M3 24-333)
chain: EEKKDSKAFIDVSAATLWTAPDSLRPIDVPSATNPVDLWKWTKSMTLDEKLWLTNANKLETQALLGQEVTVVDKKGDWVKVLVHGQPTPRNEEGYPGWMPEKQLTYNQEFADKTNEPFVLVTKPTAILYINPSEKHKSLEVSYNTRLPLLSEDTISYRVLLPNGQKAWLRKNDGTFYRSQNDIPTPAADDLINTGKMFLGLPYIWAGTSGFGFDCSGFTHTIYKSHGITIPRDSGPQSRNGVAVDKEHLQKGDLIFFAHDQGKGSVHHVAMYIGDGNMIHSPRAERSVEIIPLNTPGYIEEYAGARRYLP
modifications: selenomethionine derivative; catalytic Cys238 oxidized (OCS238) in the crystal
B1: the binding result is on record as “no binding”.

The values are drawn from article PMC2954226, “Structure of the γ-D-glutamyl-L-diamino acid endopeptidase YkfC from Bacillus cereus in complex with L-Ala-γ-D-Glu: insights into substrate recognition by NlpC/P60 cysteine peptidases” (Acta Crystallographica Section F: Structural Biology and …, 2010).
